# Results from patent US20050238733A1, “Topical anesthesia of the urinary bladder” (priority 2000, published 2005).
# Columns and labels:
# clinical = details: human, blood, other: intravesical (through transurethral urinary catheter)
# [1] = intravesical, cited from earlier work
smiles,measurement,setting,value
CCN(CC)CC(=O)Nc1c(C)cccc1C [lidocaine],absorption rate (blood levels) relative to that at pH 8.1,"anesthetized rabbits, intra-vesical, pH levels above and below 8.1",25%
same,absorption of lidocaine at the optimum bladder pH versus lower or higher pHs,"bladder, optimum pH",five times greater
same,concentration at 180 min,clinical,400 ng/mL
same,plasma levels of lidocaine,[1]; 400 mg lidocaine hydrochloride,0.12 micrograms/ml
same,"uptake from the bladder compared with intramuscular, subcutaneous and topical airway administration",[1],sixteen times less
